Test results published in the supplement of paper PMC4604168 (melanoma cell lines).
The list shows a part of the results. Repeats are few or missing, and single values can be far off.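 Cells were imaged in 1,536-well plates, and nuclei stained with an antibody against cleaved PARP were counted against all DNA-stained nuclei to give the apoptosis fraction. Screening doses were chosen to leave most cells alive, and resting and induced cleaved-PARP levels differ strongly between cell lines.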

How the values were obtained:
Assay in all cases: cleaved PARP positive nuclei fraction relative to DMSO control; melanoma cells; higher = more apoptosis
Conditions in all cases: library dose: low library concentration; 72 h
WM115 = system: WM115
WM1716 = system: WM1716
WM1745 = system: WM1745
WM3526 = system: WM3526
WM3619 = system: WM3619
WM451Lu = system: WM451Lu

Row | Structure (SMILES) | cleaved PARP positive nuclei fraction (WM115) [%] | cleaved PARP positive nuclei fraction (WM1716) [%] | cleaved PARP positive nuclei fraction (WM1745) [%] | cleaved PARP positive nuclei fraction (WM3526) [%] | cleaved PARP positive nuclei fraction (WM3619) [%] | cleaved PARP positive nuclei fraction (WM451Lu) [%]
1 | C=CCNC1=C2C[C@@H](C)C[C@H](OC)[C@H](O)[C@@H](C)/C=C(\C)[C@H](OC(N)=O)[C@@H](OC)/C=C\C=C(/C)C(=O)NC(=CC1=O)C2=O [Tanespimycin] + N#Cc1c(O)c2c(-c3ccc(-c4ccccc4O)cc3)csc2[nH]c1=O [A769662] (first compound 0.002 µM, partner dose 2 µM) | 77.4 | 98.3 | 106 | 238 | 111 | 247
2 | CC(=O)c1c(C)c2cnc(Nc3ccc(N4CCNCC4)cn3)nc2n(C2CCCC2)c1=O [palbociclib] + NC(=O)Nc1cc(-c2cccc(F)c2)sc1C(=O)N[C@H]1CCCNC1 [AZD7762] (first compound 0.04 µM, partner dose 0.02 µM) | 277 | 418 | 118 | 124 | 139 | 113
3 | O=C(Nc1cccc(Cl)c1)Nc1ncc(CCNc2ncnc3ccsc23)s1 + CN(C)S(=O)(=O)c1ccc2c(c1)/C(=C/c1cc3c([nH]1)CCCC3)C(=O)N2 [SU6656] (first compound 0.0008 µM, partner dose 0.4 µM) | 325 | 37.4 | 96.2 | 129 | 75.6 | 238
4 | OCc1c[nH]c2ccccc12 [Indole-3-carbinol] + O=C(O)C(=O)Nc1sc2c(c1C(=O)O)CCNC2 [TCS401] (first compound 0.8 µM, partner dose 1.66667 µM) | 58.5 | 44.8 | 94.5 | 225 | 93.2 | 32.2
5 | COCC[n+]1c2c(n(Cc3cnccn3)c1C)C(=O)c1ccccc1C2=O + CC(C)CCN1c2nc(Nc3cc(F)c(O)c(F)c3)ncc2N(C)C(=O)C1C [BID1870] (first compound 0.0004 µM, partner dose 0.2 µM) | 64.6 | 133 | 121 | 75.1 | 164 | 95.1
6 | Cn1nnc2c(C(N)=O)ncn2c1=O [temozolomide] + C=CCn1c(=O)c2cnc(Nc3ccc(N4CCN(C)CC4)cc3)nc2n1-c1cccc(C(C)(C)O)n1 [MK1775] (first compound 2 µM, partner dose 0.02 µM) | 197 | 218 | 112 | 58.8 | 107 | 88.7
7 | Clc1ccc(Nc2nnc(Cc3ccncc3)c3ccccc23)cc1 [vatalanib] + Oc1cc(-c2nc(-c3ccccc3)[nH]c2-c2ccncc2)ccc1Cl [L779450] (first compound 2 µM, partner dose 0.2 µM) | 87.8 | 69.1 | 125 | 105 | 77.7 | 81
8 | Cn1nnc2c(C(N)=O)ncn2c1=O [temozolomide] + O=S(=O)(c1ccccc1)N(CC(F)(F)F)c1ccc(C(O)(C(F)(F)F)C(F)(F)F)cc1 [T0901317] (first compound 2 µM, partner dose 1.4 µM) | 95.2 | 58 | 109 | 70.1 | 72.3 | 28.3
9 | OCCn1cc(-c2cnc3nnn(Cc4ccc5ncccc5c4)c3n2)cn1 + N#Cc1c(O)c2c(-c3ccc(-c4ccccc4O)cc3)csc2[nH]c1=O [A769662] (first compound 1 µM, partner dose 2 µM) | 95.7 | 99.1 | 115 | 140 | 79.1 | 42.6
10 | COCC[n+]1c2c(n(Cc3cnccn3)c1C)C(=O)c1ccccc1C2=O + O=c1cc(-c2cccc3c2Sc2ccccc2S3)oc(N2CCOCC2)c1 [KU55933] (first compound 0.0004 µM, partner dose 1 µM) | 49.1 | 100 | 114 | 76.9 | 83.3 | 27.2
11 | CO[C@@H]1[C@H](N(C)C(=O)c2ccccc2)C[C@H]2O[C@]1(C)n1c3ccccc3c3c4c(c5c6ccccc6n2c5c31)C(=O)NC4 [Midostaurin] + CC(C)CCN1c2nc(Nc3cc(F)c(O)c(F)c3)ncc2N(C)C(=O)C1C [BID1870] (first compound 0.08 µM, partner dose 0.2 µM) | 204 | 115 | 123 | 34.7 | 115 | 43.4
12 | COCC[n+]1c2c(n(Cc3cnccn3)c1C)C(=O)c1ccccc1C2=O + Cn1cc(/C=C2\C(=O)Nc3cccnc32)c2ccccc21 [GW441756] (first compound 0.0004 µM, partner dose 0.4 µM) | 115 | 112 | 96.3 | 69.5 | 299 | 74
13 | COCC[n+]1c2c(n(Cc3cnccn3)c1C)C(=O)c1ccccc1C2=O + CN(NC(=O)CC(=O)NN(C)C(=S)c1ccccc1)C(=S)c1ccccc1 [STA4783] (first compound 0.0004 µM, partner dose 0.006 µM) | 510 | 245 | 382 | 70.3 | 334 | 102
14 | Clc1ccc(Nc2nnc(Cc3ccncc3)c3ccccc23)cc1 [vatalanib] + CN(C)S(=O)(=O)c1ccc2c(c1)/C(=C/c1cc3c([nH]1)CCCC3)C(=O)N2 [SU6656] (first compound 2 µM, partner dose 0.4 µM) | 307 | 105 | 102 | 58.4 | 101 | 384
15 | C#Cc1cccc(Nc2ncnc3cc(OCCOC)c(OCCOC)cc23)c1 [erlotinib] + CCN(CC)CCCCNc1ncc2cc(-c3cc(OC)cc(OC)c3)c(NC(=O)NC(C)(C)C)nc2n1 [PD173074] (first compound 0.8 µM, partner dose 0.1 µM) | 143 | 144 | 136 | 71.7 | 75.2 | 253
16 | CO[C@@H]1[C@H](N(C)C(=O)c2ccccc2)C[C@H]2O[C@]1(C)n1c3ccccc3c3c4c(c5c6ccccc6n2c5c31)C(=O)NC4 [Midostaurin] + Cc1cc([N+](=O)[O-])ccc1NS(=O)(=O)c1cc(Cl)ccc1Cl [FH535] (first compound 0.08 µM, partner dose 1 µM) | 119 | 69.4 | 130 | 203 | 58.2 | 765
17 | Cn1c(Nc2ccc(C(F)(F)F)cc2)nc2cc(Oc3ccnc(-c4ncc(C(F)(F)F)[nH]4)c3)ccc21 + COc1cc(N2CCC(N3CCN(C)CC3)CC2)ccc1Nc1ncc(Cl)c(Nc2ccccc2S(=O)(=O)C(C)C)n1 [NVP-TAE684] (first compound 0.08 µM, partner dose 0.08 µM) | 889 | 95.7 | 154 | 153 | 120 | 138
18 | C#Cc1cccc(Nc2ncnc3cc(OCCOC)c(OCCOC)cc23)c1 [erlotinib] + O=C(CCCCCCC(=O)Nc1ccccc1)NO [vorinostat] (first compound 0.8 µM, partner dose 0.08 µM) | 88.2 | 103 | 114 | 79 | 120 | 111
19 | C[C@@H]1CCN(C(=O)CC#N)C[C@@H]1N(C)c1ncnc2[nH]ccc12 + COc1ccc2c(c1)CCC1C2CCC2(C)C(NCCCCCCN3C(=O)C=CC3=O)CCC12 [U73122] (first compound 1 µM, partner dose 0.4 µM) | 215 | 158 | 147 | 64 | 76.1 | 239
20 | Cc1nc(Nc2ncc(C(=O)Nc3c(C)cccc3Cl)s2)cc(N2CCN(CCO)CC2)n1 [dasatanib] + O=C1NC(=O)/C(=C/c2ccc(-c3ccc(F)cc3O)o2)S1 [AS252424] (first compound 0.004 µM, partner dose 1 µM) | 98.3 | 256 | 243 | 62.3 | 88.7 | 35.1
21 | Cc1cc(N2CCOCC2)cc2[nH]c(-c3c(NC[C@@H](O)c4cccc(Cl)c4)cc[nH]c3=O)nc12 + CCc1ccc(CCOc2ccc(CC3SC(=O)NC3=O)cc2)nc1 [pioglitazone] (first compound 0.2 µM, partner dose 2 µM) | 47.8 | 139 | 129 | 58.3 | 97.8 | 65.8
22 | OCc1c[nH]c2ccccc12 [Indole-3-carbinol] + CCN(CC)CCCCNc1ncc2cc(-c3cc(OC)cc(OC)c3)c(NC(=O)NC(C)(C)C)nc2n1 [PD173074] (first compound 0.8 µM, partner dose 0.1 µM) | 311 | 120 | 182 | 77.9 | 84.9 | 146

Numbers 5–6 of the list above:
Row | Structure (SMILES) | cleaved PARP positive nuclei fraction (WM115) [%] | cleaved PARP positive nuclei fraction (WM1716) [%] | cleaved PARP positive nuclei fraction (WM1745) [%] | cleaved PARP positive nuclei fraction (WM3526) [%] | cleaved PARP positive nuclei fraction (WM3619) [%] | cleaved PARP positive nuclei fraction (WM451Lu) [%]
5 | COCC[n+]1c2c(n(Cc3cnccn3)c1C)C(=O)c1ccccc1C2=O + CC(C)CCN1c2nc(Nc3cc(F)c(O)c(F)c3)ncc2N(C)C(=O)C1C [BID1870] (first compound 0.0004 µM, partner dose 0.2 µM) | 64.6 | 133 | 121 | 75.1 | 164 | 95.1
6 | Cn1nnc2c(C(N)=O)ncn2c1=O [temozolomide] + C=CCn1c(=O)c2cnc(Nc3ccc(N4CCN(C)CC4)cc3)nc2n1-c1cccc(C(C)(C)O)n1 [MK1775] (first compound 2 µM, partner dose 0.02 µM) | 197 | 218 | 112 | 58.8 | 107 | 88.7
